{"source": "PubChem BioAssay AID504786 (Drosophila RNAi Screening Center, 2011)", "purpose": "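Positive regulators of HIF-driven reporter output in Drosophila cells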 (primary screen)", "cells": "Drosophila S2 cells with a stable HIF luciferase reporter", "knock-down reagent": "long dsRNA against Drosophila genes, about 0.2 µg dsRNA per well of a 384-well plate", "time to read-out": "three days of knock-down, then 20 h of DFO before reading", "conditions": "desferrioxamine (DFO) at 100 µM, an iron chelator that mimics hypoxia, for 20 h", "measurement": "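Firefly luciferase driven by the mouse ldh-a hypoxia-response element, measured after 20 h of 100 µM DFO; z-scores per plate, higher means more signal lost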", "reading the numbers": "z-score: higher = stronger loss of HIF reporter signal", "note": "The screen tested about 21,000 reagents; below is a random part of those that have a named target and a result. 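Primary screen; positive scores mean lost reporter signal, so the sign may be inverted from the usual convention.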 Reagents against one gene are numbered here. Further read-outs or replicates are left out here."}
{"predicted target": "hec", "reagent no.": 1, "z-score, replicate 1": -0.3}
{"predicted target": "CG10417", "reagent no.": 1, "z-score, replicate 1": -0.2}
{"predicted target": "pon", "reagent no.": 1, "z-score, replicate 1": -0.4}
{"predicted target": "CG6179", "reagent no.": 1, "z-score, replicate 1": -0.1}
{"predicted target": "CG5021", "reagent no.": 1, "z-score, replicate 1": -0.3}
{"predicted target": "E2f1", "reagent no.": 1, "z-score, replicate 1": 2.9}
{"predicted target": "Acp53C14c", "reagent no.": 1, "z-score, replicate 1": 0.2}
{"predicted target": "CG17601", "reagent no.": 1, "z-score, replicate 1": 0.1}
{"predicted target": "CG34304 (retired record)", "reagent no.": 1, "z-score, replicate 1": -0.4}
{"predicted target": "mei-P26", "reagent no.": 1, "z-score, replicate 1": 2.6}
{"predicted target": "CG1722", "reagent no.": 1, "z-score, replicate 1": -0.3}
{"predicted target": "Act57B", "reagent no.": 1, "z-score, replicate 1": 0.5}
{"predicted target": "wake", "reagent no.": 1, "z-score, replicate 1": -0.3}
{"predicted target": "wake", "reagent no.": 2, "z-score, replicate 1": -0.1}
{"predicted target": "Lsp2", "reagent no.": 1, "z-score, replicate 1": -0.4}
{"predicted target": "Lsp2", "reagent no.": 2, "z-score, replicate 1": -0.3}
{"predicted target": "sxe2", "reagent no.": 1, "z-score, replicate 1": -0.3}
{"predicted target": "Gr43a", "reagent no.": 1, "z-score, replicate 1": -0.3}
{"predicted target": "CG15643", "reagent no.": 1, "z-score, replicate 1": -0.1}
{"predicted target": "CG17107", "reagent no.": 1, "z-score, replicate 1": 0}
{"predicted target": "CG13594", "reagent no.": 1, "z-score, replicate 1": -0.4}
{"predicted target": "CG17147", "reagent no.": 1, "z-score, replicate 1": -0.1}
{"predicted target": "CG1910", "reagent no.": 1, "z-score, replicate 1": 0.7}
{"predicted target": "CG12259", "reagent no.": 1, "z-score, replicate 1": -0.5}
{"predicted target": "CG4313", "reagent no.": 1, "z-score, replicate 1": -0.3}
{"predicted target": "Tbc1d8-9", "reagent no.": 1, "z-score, replicate 1": 0.1}
{"predicted target": "Ntan1", "reagent no.": 1, "z-score, replicate 1": -0.2}
